Laboratory results from PubChem BioAssay AID540256 (National Center for Advancing Translational Sciences (NCATS), 2011).
The whole screen tested about 300,000 compounds, of which about 3,700 (1.2%) were called active. The inconclusive results got no clear call from the source; some entries with a clear call stand among them for comparison. Calls come from the whole dose curve; tested in HEK293 cells. Where the call is inconclusive, the potency comes from a doubtful curve fit.

Test: qHTS for Inhibitors of binding or entry into cells for Lassa Virus; note: nearly all actives have a fitted effect of over 50% in size
Conditions: Lassa virus pseudotype entry inhibition, cell reporter; series mostly up to 37.9 µM
Potency is the fitted concentration of half-maximal effect.

Compound	Potency
O=C(Nc1ccccc1)N1CCC(c2nc(-c3ccc(S(=O)(=O)N4CCOCC4)cc3)no2)CC1	inconclusive: 2.31 µM [inhibitor, full curve, poor fit]
Cc1ccc(SCc2cc(=O)[nH]c(/N=C(\N)Nc3cccc4ccccc34)n2)cc1	inconclusive: 1.16 µM [inhibitor, partial curve, poor fit]
Cc1ccc(NC(=O)C2CCN(S(=O)(=O)c3c(C)noc3C)CC2)cc1	inactive
CCOC(=O)CC(=O)CSc1nc(-c2ccccc2)cc(-c2ccccc2)c1C#N	inconclusive: 14.1 µM [inhibitor, single point]
Cc1ccc(N2CCN(S(=O)(=O)c3ccc4oc(=O)ccc4c3)CC2)c(C)c1	inconclusive: 35.5 µM [inhibitor, single point]
Cc1ccc(-n2ncc3c(SCc4ccccn4)ncnc32)c(C)c1	active: 0.562 µM
Cc1ccc(CSc2nc3ccccc3c(=O)n2CCCC(=O)NCc2ccco2)cc1	inconclusive: 29.1 µM [inhibitor, single point]
C[C@@H](c1ccccc1)N1C[C@H]2CCCN2c2cc(Br)ccc2S1(=O)=O	inconclusive: 0.199 µM [inhibitor, full curve, poor fit]
O=C1CCCN1c1ccc(CNS(=O)(=O)c2ccc(F)cc2)cc1	inconclusive: 0.794 µM [activator, single point]
CC(C)Sc1nc2sc3c(c2c(=O)n1Cc1ccccc1)CCCC3	inconclusive: 6.31 µM [inhibitor, single point]
Cc1ccc(NC(=O)Cn2cc(C(=O)c3ccccc3)c3ccccc32)cc1	inconclusive: 35.5 µM [inhibitor, single point]
CCOC(=O)c1cnc(SCC(=O)c2ccc3c(c2)OCCO3)nc1N	inactive
COc1cccc(-c2ccc(NC(=O)C3CCCN(Cc4cnn(C(C)C)c4)C3)cc2)c1 (stereo not drawn)	inconclusive: 14.1 µM [inhibitor, single point]
COc1ccc(N(C(=O)CCl)C(C(=O)NCCc2ccccc2)c2cccs2)cc1Cl (stereo not drawn)	active: 25.9 µM
COc1ccc(OCC(=O)N2CCN(C(=O)c3ccc([N+](=O)[O-])cc3)CC2)cc1	inconclusive: 3.98 µM [inhibitor, full curve, poor fit]
CCCn1c(C)cc(C(=O)COc2ccc(-c3nnco3)cc2)c1C	inactive
CC(C)(C)C(=O)Nc1ccc(C(=O)N/N=C/c2ccccc2OC(=O)c2ccc(Cl)cc2Cl)cc1	inconclusive: 25.1 µM [inhibitor, single point]
O=C(c1ccc(OC2CCN(CCc3ccccc3)CC2)cc1)N1CCCCC1CCCO (stereo not drawn)	inconclusive: 6.31 µM [activator, single point]
COc1cc(-c2nc(-c3ccc4c(c3)-c3ccccc3S4(=O)=O)c(-c3ccccc3)[nH]2)cc(OC)c1O	inconclusive: 18.3 µM [inhibitor, partial curve]
COc1cccc(NC(=O)c2ccc(NC(C)=O)cc2)c1	inconclusive: 15.8 µM [activator, partial curve, poor fit]
Cc1ccc(CSC2=Nc3sccc3C3=NC(=O)CN23)cc1	inactive
COc1cccc(C(=O)CN2C(=O)C(C)(C)Oc3ccc(C(=O)N4CCCCCC4)cc32)c1	inactive

Compound	Potency
CC[n+]1ccc(/C=C/c2ccc(N(C)C)cc2)c2ccccc21	inconclusive: 2.51 µM [inhibitor, partial curve, poor fit]
COc1ccc(-c2nc3ccccc3s2)cc1O	active: 7.08 µM
O=C(CN1CCN(c2ccccc2)CC1)NC(=O)NCc1ccco1	inconclusive: 0.164 µM [inhibitor, full curve]
O=C(Nc1ccccc1N1CCOCC1)C1=NN(c2ccccc2)C(=O)CC1	inconclusive: 35.5 µM [inhibitor, single point]
Cc1ccc(NC(=S)NNC(=O)Nc2ccccc2)cc1	inactive
CCOc1cccc(Nc2nn(-c3ccc(OC(F)(F)F)cc3)nc2C(C)=O)c1	inconclusive: 10 µM [activator, partial curve]
CN(C)c1ccc(CN(C(=O)c2ccco2)C2CCS(=O)(=O)C2)cc1 (stereo not drawn)	inconclusive: 25.1 µM [activator, single point]
CCC(CC)=NNc1cccc([N+](=O)[O-])c1	inactive
Cc1cc(Cl)cc(C)c1OCCn1ccnc1	active: 3.55 µM
Cc1ccc(CCNC(=O)CN2C(=O)COc3ccccc32)cc1	inconclusive: 0.517 µM [activator, full curve, poor fit]
COc1ccc(Cl)cc1NC(=O)c1cc(C)no1	inactive
O=C(CSc1n[nH]c(-c2ccccn2)n1)Nc1ccc(F)cc1	active: 10 µM
Cc1ccc2nc(NCc3ccccc3)c3nnnn3c2c1	inconclusive: 10 µM [activator, partial curve]
Cc1ccc(/C=C/C(=O)Nc2ccccc2C(N)=O)cc1	inconclusive: 8.91 µM [inhibitor, partial curve, poor fit]
COc1ccc2[nH]c3c(N4CCN(Cc5ccc6c(c5)OCO6)CC4)ncnc3c2c1	inconclusive: 22.4 µM [inhibitor, single point]
CCCCNS(=O)(=O)c1ccc2nc(-c3cccnc3)cc(C(=O)NCCCOC(C)C)c2c1	inactive
COc1ccc(C=O)cc1CN1CCCN(Cc2ccc(Cl)cc2)S1(=O)=O	inconclusive: 1.78 µM [inhibitor, full curve, poor fit]
Cc1noc(C)c1CSc1nnc(-c2c[nH]c3ccccc23)n1-c1ccc(Cl)cc1	inconclusive: 1.12 µM [inhibitor, full curve, poor fit]
COc1ccc(-c2noc(N3CCC(C(=O)N4CCN(c5ccccc5OC)CC4)CC3)n2)cc1	inconclusive: 35.5 µM [inhibitor, single point]
O=C(COc1cccc(NC(=O)c2cccs2)c1)c1ccc(F)cc1	inconclusive: 15.8 µM [inhibitor, partial curve, poor fit]
COc1ccc(S(=O)(=O)Nc2ccccc2OC)cc1NC(=O)CC1CC2CCC1C2 (stereo not drawn)	inconclusive: 0.58 µM [inhibitor, full curve]

Quoted from the listing.
Value of Cc1cc(Cl)cc(C)c1OCCn1ccnc1 under Potency: active: 3.55 µM
Value of O=C(COc1cccc(NC(=O)c2cccs2)c1)c1ccc(F)cc1 under Potency: inconclusive: 15.8 µM [inhibitor, partial curve, poor fit]
Value of O=C(CSc1n[nH]c(-c2ccccn2)n1)Nc1ccc(F)cc1 under Potency: active: 10 µM
